# Data as given in article doi:10.1101/360628.
# Sequences of proteins named here, by UniProt entry; tags and fusion partners are left off. A change or cut given only in a name is not applied to a line headed by its entry.
# UniProt P42003: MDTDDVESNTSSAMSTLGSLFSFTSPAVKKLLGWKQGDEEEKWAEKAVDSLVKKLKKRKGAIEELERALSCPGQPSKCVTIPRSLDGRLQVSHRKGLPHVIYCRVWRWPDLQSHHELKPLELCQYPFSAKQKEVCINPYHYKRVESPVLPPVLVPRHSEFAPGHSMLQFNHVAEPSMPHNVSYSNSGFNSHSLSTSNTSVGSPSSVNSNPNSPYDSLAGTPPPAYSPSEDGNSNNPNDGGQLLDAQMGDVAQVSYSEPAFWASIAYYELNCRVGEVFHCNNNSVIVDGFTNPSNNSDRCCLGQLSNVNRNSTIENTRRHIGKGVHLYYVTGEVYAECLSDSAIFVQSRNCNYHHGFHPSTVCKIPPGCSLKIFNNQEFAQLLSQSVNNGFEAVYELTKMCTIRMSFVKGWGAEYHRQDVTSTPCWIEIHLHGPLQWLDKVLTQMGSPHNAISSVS
# UniProt Q9VT57: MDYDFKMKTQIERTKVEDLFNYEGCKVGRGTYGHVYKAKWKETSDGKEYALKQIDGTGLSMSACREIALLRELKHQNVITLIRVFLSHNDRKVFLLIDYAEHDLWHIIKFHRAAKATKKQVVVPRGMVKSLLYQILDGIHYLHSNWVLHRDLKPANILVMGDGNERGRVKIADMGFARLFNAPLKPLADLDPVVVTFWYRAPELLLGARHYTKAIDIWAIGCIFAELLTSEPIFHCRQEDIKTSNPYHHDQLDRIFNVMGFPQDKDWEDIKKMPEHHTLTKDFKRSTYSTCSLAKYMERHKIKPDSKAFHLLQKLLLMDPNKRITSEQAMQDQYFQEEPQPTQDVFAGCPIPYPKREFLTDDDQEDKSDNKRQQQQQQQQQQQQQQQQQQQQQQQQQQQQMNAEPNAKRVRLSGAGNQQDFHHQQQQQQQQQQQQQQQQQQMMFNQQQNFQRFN
# These are yes or no findings as the source states them, for the method shown. For some of these results: In cells and extracts the contact can be indirect. Some results given as binding are weak or reduced against the parent protein; the word gives no strength.
# Key:
# [1] = target: BD-Mad-N2 (Mad-N2 fragment as the bait, GAL4-DNA-binding domain fusion) (Drosophila) (UniProt P42003); test: two-hybrid
# [2] = target: BD-Mad-N1 (Mad-N1 fragment as the bait, GAL4-DNA-binding domain fusion) (Drosophila) (UniProt P42003); test: two-hybrid
# [3] = target: GST-CDK8 (full-length CDK8 fused with an N-terminal GST tag) (Drosophila) (UniProt Q9VT57); test: pull-down
binding [1],binding [2],binding [3],Substance
binds,no binding,–,"AD-CDK8 (full length CDK8 as the prey, GAL4-activation domain fusion) (from UniProt Q9VT57 1-454) (enzyme)"
–,–,no binding,His-tagged Mad-C1 fragment (AA231-455) (from UniProt P42003 231-455) (domain or fragment)
–,–,binds,His-tagged Mad-C2 fragment (AA151-455) (from UniProt P42003 151-455) (domain or fragment)
–,–,no binding,His-tagged Mad-N1 fragment (AA1-150) (from UniProt P42003 1-150) (domain or fragment)
–,–,binds,His-tagged Mad-N2 fragment (AA1-230) (from UniProt P42003 1-230) (domain or fragment)
–,–,binds,"His-tagged full length Mad (Mad-FL, AA1-455) (from UniProt P42003 1-455)"
